Laboratory results reported in doi:10.1101/2021.08.25.457671.
These are yes or no findings as the source states them, for the method shown. Binding seen in cells or lysates may run through a third protein. Some binding calls cover weakened binding; strength is not graded here. For some assays here: Where a sequence is shown, tags or fusion partners need not be part of it.

The chains behind the UniProt entries cited, without tags or fusion partners.
UniProt P32480: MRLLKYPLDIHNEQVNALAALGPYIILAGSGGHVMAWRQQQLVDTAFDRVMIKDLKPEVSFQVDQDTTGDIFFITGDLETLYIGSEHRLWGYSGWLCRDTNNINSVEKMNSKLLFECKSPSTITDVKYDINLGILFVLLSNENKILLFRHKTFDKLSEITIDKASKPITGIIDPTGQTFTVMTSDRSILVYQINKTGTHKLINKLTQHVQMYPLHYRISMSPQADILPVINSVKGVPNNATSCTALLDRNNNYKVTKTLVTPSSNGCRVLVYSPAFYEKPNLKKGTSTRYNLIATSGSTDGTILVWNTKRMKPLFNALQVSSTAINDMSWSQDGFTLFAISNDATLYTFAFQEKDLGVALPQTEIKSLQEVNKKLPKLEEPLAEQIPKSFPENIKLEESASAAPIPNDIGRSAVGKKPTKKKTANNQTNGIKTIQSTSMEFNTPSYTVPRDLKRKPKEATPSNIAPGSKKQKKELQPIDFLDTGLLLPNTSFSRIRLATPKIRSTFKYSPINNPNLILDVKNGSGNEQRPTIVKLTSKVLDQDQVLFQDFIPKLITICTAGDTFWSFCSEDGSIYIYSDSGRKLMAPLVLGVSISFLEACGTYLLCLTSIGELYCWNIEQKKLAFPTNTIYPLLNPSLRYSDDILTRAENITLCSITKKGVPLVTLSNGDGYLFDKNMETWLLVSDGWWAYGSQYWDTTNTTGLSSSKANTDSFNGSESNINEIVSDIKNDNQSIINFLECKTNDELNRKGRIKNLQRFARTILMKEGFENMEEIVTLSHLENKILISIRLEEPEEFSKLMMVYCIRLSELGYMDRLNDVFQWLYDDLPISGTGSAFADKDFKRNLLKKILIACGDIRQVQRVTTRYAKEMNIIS
UniProt P10591: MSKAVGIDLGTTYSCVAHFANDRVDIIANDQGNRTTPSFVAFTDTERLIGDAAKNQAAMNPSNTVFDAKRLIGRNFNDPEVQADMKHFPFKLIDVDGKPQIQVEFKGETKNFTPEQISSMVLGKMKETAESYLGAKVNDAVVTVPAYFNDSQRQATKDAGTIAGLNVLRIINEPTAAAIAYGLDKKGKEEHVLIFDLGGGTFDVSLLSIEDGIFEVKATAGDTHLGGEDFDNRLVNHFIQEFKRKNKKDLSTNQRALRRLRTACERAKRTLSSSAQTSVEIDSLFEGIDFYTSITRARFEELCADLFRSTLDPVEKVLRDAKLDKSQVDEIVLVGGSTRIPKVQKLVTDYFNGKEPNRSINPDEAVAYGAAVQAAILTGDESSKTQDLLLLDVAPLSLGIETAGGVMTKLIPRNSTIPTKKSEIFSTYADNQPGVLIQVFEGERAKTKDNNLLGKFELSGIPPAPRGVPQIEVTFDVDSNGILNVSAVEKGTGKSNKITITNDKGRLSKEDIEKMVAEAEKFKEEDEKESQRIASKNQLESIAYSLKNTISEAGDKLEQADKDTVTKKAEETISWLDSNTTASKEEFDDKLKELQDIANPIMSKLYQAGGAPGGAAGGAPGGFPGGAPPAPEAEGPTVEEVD

Assays:
Assay in all cases: co-IP
[1] = target: T1, HA-tagged Pcl7 (budding yeast) (UniProt P40186)
T1 sequence: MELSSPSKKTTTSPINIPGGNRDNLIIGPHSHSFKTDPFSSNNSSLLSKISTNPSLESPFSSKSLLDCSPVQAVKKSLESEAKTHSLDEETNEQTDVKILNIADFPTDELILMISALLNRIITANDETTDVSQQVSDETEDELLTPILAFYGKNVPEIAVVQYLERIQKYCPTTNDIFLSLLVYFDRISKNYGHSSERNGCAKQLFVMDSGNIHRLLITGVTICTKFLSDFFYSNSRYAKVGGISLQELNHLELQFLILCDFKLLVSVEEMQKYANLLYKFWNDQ

[2] = target: Hir2 (budding yeast) (UniProt P32480)
[3] = target: T2, Mtw1 Y86F (budding yeast) (UniProt P39731)
T2 sequence: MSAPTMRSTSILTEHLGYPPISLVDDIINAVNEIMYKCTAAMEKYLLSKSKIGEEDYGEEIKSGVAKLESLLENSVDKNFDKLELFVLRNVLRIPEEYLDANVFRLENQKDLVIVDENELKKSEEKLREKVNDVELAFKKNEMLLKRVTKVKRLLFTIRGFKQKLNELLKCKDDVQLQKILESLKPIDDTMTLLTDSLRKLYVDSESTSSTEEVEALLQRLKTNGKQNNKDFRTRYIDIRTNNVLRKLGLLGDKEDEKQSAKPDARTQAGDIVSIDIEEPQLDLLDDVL

[4] = target: T3, Pim1 S974D (budding yeast) (UniProt P36775)
T3 sequence: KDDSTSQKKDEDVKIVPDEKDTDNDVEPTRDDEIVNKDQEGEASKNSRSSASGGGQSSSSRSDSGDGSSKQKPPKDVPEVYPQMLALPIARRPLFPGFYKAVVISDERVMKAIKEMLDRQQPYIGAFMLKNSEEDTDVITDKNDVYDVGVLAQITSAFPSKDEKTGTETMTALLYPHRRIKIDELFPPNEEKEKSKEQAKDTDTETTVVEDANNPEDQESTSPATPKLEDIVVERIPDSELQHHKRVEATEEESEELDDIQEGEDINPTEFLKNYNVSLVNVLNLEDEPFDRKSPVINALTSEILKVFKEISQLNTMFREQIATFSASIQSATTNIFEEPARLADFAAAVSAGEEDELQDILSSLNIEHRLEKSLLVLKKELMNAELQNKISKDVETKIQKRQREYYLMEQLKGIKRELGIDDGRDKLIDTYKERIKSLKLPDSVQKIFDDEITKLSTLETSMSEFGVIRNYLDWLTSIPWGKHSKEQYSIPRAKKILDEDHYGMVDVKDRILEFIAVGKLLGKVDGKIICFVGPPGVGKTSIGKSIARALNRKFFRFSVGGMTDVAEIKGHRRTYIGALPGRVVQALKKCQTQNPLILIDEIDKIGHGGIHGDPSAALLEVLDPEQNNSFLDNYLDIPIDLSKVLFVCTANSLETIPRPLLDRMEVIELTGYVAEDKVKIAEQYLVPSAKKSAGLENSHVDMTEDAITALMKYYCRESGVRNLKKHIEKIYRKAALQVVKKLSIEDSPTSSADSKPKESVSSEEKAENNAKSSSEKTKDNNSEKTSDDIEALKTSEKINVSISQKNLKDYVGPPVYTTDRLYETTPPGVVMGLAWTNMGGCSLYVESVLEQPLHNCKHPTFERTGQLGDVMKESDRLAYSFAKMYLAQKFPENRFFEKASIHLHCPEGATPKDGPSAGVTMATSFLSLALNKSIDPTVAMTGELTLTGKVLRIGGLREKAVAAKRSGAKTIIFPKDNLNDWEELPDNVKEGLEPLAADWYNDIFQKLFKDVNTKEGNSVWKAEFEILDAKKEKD

[5] = target: T4, Ste11 (immunoprecipitated from yeast) (budding yeast) (UniProt P23561)
T4 sequence: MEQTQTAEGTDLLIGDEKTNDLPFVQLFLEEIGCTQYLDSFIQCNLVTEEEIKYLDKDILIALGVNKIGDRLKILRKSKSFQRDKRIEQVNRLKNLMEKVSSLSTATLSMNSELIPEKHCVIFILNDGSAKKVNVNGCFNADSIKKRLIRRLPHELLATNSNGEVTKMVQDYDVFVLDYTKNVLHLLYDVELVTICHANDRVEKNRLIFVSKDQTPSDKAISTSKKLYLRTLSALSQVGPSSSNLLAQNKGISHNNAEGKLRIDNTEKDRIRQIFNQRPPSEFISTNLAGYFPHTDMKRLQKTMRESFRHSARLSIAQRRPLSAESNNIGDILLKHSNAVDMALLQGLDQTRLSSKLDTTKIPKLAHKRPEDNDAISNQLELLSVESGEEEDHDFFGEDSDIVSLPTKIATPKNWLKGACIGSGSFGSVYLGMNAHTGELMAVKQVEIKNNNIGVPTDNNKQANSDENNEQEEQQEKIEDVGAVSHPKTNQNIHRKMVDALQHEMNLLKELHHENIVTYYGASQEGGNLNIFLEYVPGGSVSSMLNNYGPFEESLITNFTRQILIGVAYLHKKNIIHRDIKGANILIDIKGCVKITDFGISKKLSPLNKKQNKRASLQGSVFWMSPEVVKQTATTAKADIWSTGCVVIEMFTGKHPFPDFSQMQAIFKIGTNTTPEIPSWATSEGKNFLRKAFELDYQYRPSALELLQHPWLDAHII

binding [1]: binds | binding [2]: binds | binding [3]: binds | binding [4]: binds | binding [5]: binds
Substance: Ssa1 found by immunoblot in co-immunoprecipitates of client proteins from yeast (from UniProt P10591 1-642)
